pIC50: −log10 of the molar value.
Key:
Assay type in all cases: functional, cell-based
[1] = Cytotoxicity against human NCI-H929 cells after 72 hrs by resazurin/resorufin-based fluorescence assay; conditions: NCI-H929, 72 h
How it was run: (§1)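 CellTiter-Blue viability: 1200 cells per well seeded, incubated overnight at 37 °C, 5% CO₂; drugs serially diluted 2:3 in medium, four replicate wells per concentration plus four diluent-only control wells; 72 h exposure; resazurin reduction to resorufin read by fluorescence (579 nm ex/584 nm em). IC50 is the average of three data sets, each using nine concentrations between 0.004 μM and 12.5 μM.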

SK-ES1 = test: Cytotoxicity against human SK-ES-1 cells after 72 hrs by resazurin/resorufin-based fluorescence assay; conditions: SK-ES1, 72 h; how it was run: as §1
A673 = test: Cytotoxicity against human A673 cells after 72 hrs by resazurin/resorufin-based fluorescence assay; conditions: A673, 72 h

Measured: pIC50

CCc1cnn2c(NCc3ccc[n+]([O-])c3)cc(N3CCCC[C@H]3CCO)nc12 [DINACICLIB]
> 8.30: all assays above
